Results published in patent US6602852B1 (NST NeuroSurvival Technologies, Ltd., priority 1998, dated 2003).

Assay: peptide synthesis
Conditions: whole synthesis

## Myristate-GGGKKKKKRFSFKKSFKLSGFSFKKNKKK(Biotin)-OH
  final HPLC purity: 91.5%

## Myristate-KKKKKRFSFKKSFKLSGFSFKKNKKK (SEQUENCE ID NO. 2)-(biotin)
  final HPLC purity: 85.7%
